Some of the results follow. The calls rarely recur for the same compound in another form.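 Kinases were expressed as nanoluciferase fusions in K562 cells and luminescence was read every 4 h between 2 and 18 h as percent of control, DMSO set to 100% and a positive control to 0%. A time point counts as decreased when the signal drops significantly (2 sigma). The hit call is the authors' own, does not follow from the count of time points alone, and its rule is not shown.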
Legend:
Experiment in all cases: kinase-Nluc reporter destabilization hit call (1 = scored as downregulated) (binary); higher = compound decreases kinase abundance
Settings in all cases: K562, 2-18 h
[1] = target: PDPK1 (UniProt O15530)
[2] = target: PIK4CA (UniProt P42356)
[3] = target: PIK4CB (UniProt Q9UBF8)
[4] = target: PLK1 (UniProt P53350)
[5] = target: PRKAA1 (UniProt Q13131)
[6] = target: PRKCA (UniProt P17252)
[7] = target: PTK2B (UniProt Q14289)
[8] = target: RAF1 (UniProt P04049)
[9] = target: RAF1_S257L (clone: RAF1_mut) (UniProt P04049)
[10] = target: RET (UniProt P07949)
[11] = target: RET_M918T (clone: RET_mut) (UniProt P07949)
[12] = target: RIOK1 (UniProt Q9BRS2)
[13] = target: RIPK1 (UniProt Q13546)
[14] = target: RIPK2 (UniProt O43353)
[15] = target: ROR2 (UniProt Q01974)
[16] = target: RPS6KA1 (UniProt Q15418)
[17] = target: SPHK1 (UniProt Q9NYA1)
[18] = target: SRC (UniProt P12931)
[19] = target: STK24 (UniProt Q9Y6E0)
[20] = target: PTK2 (UniProt Q05397)

Protein sequences, listed by entry. Tags and fused reporters are not part of them. Lines headed by an entry give the natural chain unless they say otherwise; changes in a name come on top.
UniProt O15530: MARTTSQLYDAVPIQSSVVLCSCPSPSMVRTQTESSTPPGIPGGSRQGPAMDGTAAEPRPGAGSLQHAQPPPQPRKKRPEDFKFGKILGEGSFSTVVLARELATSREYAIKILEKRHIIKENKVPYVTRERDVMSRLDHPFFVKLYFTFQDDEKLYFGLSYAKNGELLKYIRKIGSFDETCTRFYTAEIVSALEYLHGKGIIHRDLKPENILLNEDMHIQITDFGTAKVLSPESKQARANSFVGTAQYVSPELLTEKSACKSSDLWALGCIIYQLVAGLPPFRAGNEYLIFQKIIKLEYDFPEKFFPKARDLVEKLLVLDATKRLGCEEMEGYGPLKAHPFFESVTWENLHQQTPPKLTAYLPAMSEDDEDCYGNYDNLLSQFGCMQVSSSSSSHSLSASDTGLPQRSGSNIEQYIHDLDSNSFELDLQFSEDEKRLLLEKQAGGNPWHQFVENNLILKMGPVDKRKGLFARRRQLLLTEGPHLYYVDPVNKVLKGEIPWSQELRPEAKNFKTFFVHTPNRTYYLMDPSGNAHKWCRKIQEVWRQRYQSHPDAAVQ
UniProt P42356, whole entry, looked up: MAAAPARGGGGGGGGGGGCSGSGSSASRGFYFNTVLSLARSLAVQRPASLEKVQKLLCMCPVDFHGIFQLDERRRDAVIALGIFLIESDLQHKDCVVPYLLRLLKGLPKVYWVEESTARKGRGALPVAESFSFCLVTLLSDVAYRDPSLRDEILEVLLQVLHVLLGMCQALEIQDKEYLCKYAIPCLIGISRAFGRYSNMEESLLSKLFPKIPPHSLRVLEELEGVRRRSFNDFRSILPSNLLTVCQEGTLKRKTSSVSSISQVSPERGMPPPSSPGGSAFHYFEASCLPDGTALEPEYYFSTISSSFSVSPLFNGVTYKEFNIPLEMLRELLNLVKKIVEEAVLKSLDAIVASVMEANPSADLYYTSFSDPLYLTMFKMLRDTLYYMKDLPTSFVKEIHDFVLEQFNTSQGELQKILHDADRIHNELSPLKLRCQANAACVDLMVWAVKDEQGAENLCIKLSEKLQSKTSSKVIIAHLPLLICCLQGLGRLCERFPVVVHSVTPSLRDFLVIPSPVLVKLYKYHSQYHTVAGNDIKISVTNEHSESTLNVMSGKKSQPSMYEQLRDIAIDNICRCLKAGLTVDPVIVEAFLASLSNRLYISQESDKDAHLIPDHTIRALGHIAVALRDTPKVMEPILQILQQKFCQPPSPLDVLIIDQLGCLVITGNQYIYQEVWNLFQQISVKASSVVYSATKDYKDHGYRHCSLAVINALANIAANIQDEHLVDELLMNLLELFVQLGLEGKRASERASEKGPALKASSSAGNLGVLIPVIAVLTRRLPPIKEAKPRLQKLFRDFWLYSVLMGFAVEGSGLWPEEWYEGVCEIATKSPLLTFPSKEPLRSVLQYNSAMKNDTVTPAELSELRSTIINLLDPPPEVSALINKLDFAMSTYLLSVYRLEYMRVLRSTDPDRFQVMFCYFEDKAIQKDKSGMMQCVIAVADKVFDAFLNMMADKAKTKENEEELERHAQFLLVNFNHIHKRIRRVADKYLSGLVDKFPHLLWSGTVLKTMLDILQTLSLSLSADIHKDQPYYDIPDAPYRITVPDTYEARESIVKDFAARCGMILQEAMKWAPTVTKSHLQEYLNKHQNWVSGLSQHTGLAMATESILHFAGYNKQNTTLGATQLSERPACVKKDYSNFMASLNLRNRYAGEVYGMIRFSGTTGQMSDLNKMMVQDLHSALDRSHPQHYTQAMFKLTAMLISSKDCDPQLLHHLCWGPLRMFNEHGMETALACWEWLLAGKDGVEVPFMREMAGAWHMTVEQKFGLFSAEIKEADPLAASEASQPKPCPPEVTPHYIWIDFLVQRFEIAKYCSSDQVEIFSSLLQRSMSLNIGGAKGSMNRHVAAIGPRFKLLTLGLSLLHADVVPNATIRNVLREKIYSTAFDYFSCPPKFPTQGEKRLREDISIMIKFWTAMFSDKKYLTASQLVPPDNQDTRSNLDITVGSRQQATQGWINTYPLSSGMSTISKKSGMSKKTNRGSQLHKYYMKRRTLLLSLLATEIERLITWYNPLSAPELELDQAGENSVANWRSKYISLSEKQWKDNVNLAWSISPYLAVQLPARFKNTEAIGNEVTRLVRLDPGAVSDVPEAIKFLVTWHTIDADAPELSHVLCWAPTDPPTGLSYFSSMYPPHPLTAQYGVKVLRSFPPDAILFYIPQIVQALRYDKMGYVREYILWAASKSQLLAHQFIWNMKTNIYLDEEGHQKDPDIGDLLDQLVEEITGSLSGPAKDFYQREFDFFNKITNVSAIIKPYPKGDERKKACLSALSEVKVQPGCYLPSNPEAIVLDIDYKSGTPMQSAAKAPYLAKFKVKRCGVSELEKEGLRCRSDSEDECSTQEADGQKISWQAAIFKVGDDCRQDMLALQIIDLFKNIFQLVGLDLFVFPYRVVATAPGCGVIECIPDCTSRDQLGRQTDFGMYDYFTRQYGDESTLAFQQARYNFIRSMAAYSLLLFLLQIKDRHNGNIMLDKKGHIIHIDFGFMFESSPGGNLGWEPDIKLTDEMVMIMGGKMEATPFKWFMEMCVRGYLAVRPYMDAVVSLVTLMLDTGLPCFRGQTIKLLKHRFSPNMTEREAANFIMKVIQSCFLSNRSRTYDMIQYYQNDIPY
UniProt P53350, whole entry: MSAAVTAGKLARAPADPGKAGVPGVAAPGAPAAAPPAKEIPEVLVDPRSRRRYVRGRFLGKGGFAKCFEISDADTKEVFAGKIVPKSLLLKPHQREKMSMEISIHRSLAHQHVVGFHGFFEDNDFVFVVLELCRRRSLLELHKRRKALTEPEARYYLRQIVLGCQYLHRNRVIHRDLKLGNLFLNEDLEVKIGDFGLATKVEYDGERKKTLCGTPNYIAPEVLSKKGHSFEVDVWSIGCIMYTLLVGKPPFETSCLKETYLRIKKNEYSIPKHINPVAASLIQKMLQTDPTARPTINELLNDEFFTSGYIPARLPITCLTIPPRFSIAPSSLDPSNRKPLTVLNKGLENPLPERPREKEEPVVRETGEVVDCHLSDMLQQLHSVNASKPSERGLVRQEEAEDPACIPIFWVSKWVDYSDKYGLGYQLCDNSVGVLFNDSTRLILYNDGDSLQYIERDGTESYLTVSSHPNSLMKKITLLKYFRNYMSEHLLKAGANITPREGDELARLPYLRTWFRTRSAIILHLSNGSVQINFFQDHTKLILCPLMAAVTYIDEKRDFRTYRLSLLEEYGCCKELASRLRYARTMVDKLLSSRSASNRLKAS
UniProt Q13131: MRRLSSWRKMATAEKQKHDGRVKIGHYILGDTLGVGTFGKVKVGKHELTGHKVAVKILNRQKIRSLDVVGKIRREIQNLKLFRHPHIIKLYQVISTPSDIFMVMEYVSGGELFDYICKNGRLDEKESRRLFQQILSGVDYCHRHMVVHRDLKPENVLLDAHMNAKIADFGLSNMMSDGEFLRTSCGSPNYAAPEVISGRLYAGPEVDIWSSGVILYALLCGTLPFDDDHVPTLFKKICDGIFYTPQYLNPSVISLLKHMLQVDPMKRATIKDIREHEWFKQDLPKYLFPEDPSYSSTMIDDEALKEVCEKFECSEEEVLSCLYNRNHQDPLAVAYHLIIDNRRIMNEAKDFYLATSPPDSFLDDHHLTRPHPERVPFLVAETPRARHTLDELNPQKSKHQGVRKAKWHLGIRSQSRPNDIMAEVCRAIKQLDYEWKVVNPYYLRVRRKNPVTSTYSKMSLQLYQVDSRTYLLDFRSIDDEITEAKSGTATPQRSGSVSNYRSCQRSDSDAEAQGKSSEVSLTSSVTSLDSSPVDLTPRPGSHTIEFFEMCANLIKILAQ
UniProt Q9BRS2: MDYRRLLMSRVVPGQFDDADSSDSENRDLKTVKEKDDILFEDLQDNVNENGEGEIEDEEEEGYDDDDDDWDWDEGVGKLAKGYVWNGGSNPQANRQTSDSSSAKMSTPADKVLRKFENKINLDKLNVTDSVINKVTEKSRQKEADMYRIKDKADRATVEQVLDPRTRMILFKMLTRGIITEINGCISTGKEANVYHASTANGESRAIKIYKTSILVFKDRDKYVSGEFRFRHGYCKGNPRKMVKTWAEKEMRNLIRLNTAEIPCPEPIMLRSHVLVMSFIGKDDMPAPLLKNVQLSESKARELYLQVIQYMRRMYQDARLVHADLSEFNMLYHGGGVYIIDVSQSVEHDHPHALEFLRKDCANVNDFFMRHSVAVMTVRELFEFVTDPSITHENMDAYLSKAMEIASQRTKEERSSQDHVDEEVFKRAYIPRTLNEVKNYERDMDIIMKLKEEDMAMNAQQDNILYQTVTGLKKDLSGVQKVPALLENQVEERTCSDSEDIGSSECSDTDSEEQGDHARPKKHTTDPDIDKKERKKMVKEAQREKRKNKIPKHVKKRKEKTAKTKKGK
UniProt Q13546: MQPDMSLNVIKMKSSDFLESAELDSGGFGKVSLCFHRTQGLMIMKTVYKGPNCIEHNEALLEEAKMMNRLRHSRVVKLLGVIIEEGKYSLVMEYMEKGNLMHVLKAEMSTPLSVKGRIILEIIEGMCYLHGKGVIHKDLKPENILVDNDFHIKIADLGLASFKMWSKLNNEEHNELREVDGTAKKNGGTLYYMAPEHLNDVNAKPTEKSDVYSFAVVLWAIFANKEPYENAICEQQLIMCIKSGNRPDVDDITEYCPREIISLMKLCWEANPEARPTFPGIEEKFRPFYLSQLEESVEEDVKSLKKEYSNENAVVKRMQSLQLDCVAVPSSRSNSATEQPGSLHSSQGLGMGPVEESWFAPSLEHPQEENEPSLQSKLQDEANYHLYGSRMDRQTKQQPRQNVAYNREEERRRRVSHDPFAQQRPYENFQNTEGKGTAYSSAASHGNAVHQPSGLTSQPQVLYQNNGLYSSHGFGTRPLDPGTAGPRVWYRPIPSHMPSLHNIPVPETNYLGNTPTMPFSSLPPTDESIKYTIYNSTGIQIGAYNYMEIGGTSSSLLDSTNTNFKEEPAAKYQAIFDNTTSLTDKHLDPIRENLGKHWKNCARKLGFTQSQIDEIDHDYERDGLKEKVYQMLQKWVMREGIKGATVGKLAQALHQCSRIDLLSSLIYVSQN
UniProt Q01974, whole entry: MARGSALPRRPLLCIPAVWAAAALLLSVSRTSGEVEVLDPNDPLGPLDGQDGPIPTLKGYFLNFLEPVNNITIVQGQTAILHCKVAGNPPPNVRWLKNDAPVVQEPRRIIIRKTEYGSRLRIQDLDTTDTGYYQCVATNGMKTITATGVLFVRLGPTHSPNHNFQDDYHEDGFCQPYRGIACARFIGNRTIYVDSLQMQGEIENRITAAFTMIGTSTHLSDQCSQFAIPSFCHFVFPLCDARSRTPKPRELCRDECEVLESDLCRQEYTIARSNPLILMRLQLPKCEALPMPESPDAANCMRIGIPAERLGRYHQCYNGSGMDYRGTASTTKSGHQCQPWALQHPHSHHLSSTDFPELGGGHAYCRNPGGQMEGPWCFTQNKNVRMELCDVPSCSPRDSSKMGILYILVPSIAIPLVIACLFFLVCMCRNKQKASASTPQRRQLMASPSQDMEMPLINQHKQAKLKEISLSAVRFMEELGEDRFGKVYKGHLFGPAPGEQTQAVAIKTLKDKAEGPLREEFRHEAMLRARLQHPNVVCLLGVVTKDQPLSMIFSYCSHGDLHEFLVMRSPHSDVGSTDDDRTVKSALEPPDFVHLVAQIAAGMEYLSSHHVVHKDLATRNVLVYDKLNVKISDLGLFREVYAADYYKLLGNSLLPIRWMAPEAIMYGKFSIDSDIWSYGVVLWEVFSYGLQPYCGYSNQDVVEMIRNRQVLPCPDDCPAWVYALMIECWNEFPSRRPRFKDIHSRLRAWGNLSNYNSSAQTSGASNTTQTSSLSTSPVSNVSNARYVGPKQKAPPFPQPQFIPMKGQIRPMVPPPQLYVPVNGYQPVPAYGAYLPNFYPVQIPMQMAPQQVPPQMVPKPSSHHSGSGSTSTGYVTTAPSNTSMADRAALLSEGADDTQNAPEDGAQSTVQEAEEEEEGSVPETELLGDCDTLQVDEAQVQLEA
UniProt Q9Y6E0: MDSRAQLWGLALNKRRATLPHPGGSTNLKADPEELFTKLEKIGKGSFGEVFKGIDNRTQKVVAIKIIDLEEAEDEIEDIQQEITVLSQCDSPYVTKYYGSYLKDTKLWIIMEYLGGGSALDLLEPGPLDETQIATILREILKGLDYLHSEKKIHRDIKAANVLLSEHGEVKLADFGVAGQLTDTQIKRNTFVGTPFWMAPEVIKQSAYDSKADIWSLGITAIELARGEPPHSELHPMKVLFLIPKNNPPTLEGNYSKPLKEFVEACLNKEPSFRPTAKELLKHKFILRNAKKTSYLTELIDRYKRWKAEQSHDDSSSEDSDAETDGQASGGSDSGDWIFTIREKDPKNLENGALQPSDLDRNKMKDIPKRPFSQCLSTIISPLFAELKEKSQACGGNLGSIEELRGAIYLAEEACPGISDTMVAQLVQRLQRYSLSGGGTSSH

Measured: kinase-Nluc reporter destabilization hit call

Cc1cc(Nc2cc(N3CCN(C)CC3)nc(/C=C/c3ccccc3)n2)n[nH]1 [ENMD-2076 (Tartrate)]
inactive: [1]; 2.5 µM 0 | [2]; 2.5 µM 0 | [3]; 2.5 µM 0 | [4]; 2.5 µM 0 | [5]; 2.5 µM 0 | [6]; 2.5 µM 0 | [7]; 2.5 µM 0 | [8]; 2.5 µM 0 | [9]; 2.5 µM 0 | [10]; 2.5 µM 0 | [11]; 2.5 µM 0 | [12]; 2.5 µM 0 | [13]; 2.5 µM 0 | [14]; 2.5 µM 0 | [15]; 2.5 µM 0 | [16]; 2.5 µM 0 | [17]; 2.5 µM 0 | [18]; 2.5 µM 0 | [19]; 2.5 µM 0

N#CC(=Cc1cc(Cl)cc(Cl)c1)c1cccnc1
inactive: [4]; 10 µM 0 | [20]; 10 µM 0 | [8]; 10 µM 0 | [10]; 10 µM 0 | [11]; 10 µM 0 | [17]; 10 µM 0 | [18]; 10 µM 0

CNC(=O)c1cc(Oc2ccc(NC(=O)Nc3ccc(Cl)c(C(F)(F)F)c3)cc2)ccn1 [Sorafenib]
inactive: [1]; 2.5 µM 0 | [2]; 2.5 µM 0 | [3]; 2.5 µM 0 | [4]; 2.5 µM 0 | [5]; 2.5 µM 0 | [6]; 2.5 µM 0 | [20]; 2.5 µM 0 | [7]; 2.5 µM 0 | [8]; 2.5 µM 0 | [9]; 2.5 µM 0 | [10]; 2.5 µM 0 | [11]; 2.5 µM 0 | [12]; 2.5 µM 0 | [13]; 2.5 µM 0 | [14]; 2.5 µM 0 | [15]; 2.5 µM 0 | [16]; 2.5 µM 0 | [17]; 2.5 µM 0 | [19]; 2.5 µM 0

Fc1ccc(-c2nc(-c3ccc4ccccc4c3F)[nH]c2-c2ccncc2)cc1
inactive: [1]; 10 µM 0 | [2]; 10 µM 0 | [3]; 10 µM 0 | [4]; 10 µM 0 | [5]; 10 µM 0 | [6]; 10 µM 0 | [7]; 10 µM 0 | [9]; 10 µM 0 | [11]; 10 µM 0 | [12]; 10 µM 0 | [13]; 10 µM 0 | [14]; 10 µM 0 | [15]; 10 µM 0 | [16]; 10 µM 0 | [17]; 10 µM 0 | [18]; 10 µM 0 | [19]; 10 µM 0
active: [20]; 10 µM 1

— the supplement of paper PMC12823440, “Inhibitors supercharge kinase turnover through native proteolytic circuits” (Nature, 2025)
